Test results as given in the supplement of paper PMC10849652.
The list shows a part of the results.

Protein sequences, listed by entry. Tags and fused reporters are not part of them. Lines headed by an entry give the natural chain unless they say otherwise; changes in a name come on top.
UniProt Q86V24: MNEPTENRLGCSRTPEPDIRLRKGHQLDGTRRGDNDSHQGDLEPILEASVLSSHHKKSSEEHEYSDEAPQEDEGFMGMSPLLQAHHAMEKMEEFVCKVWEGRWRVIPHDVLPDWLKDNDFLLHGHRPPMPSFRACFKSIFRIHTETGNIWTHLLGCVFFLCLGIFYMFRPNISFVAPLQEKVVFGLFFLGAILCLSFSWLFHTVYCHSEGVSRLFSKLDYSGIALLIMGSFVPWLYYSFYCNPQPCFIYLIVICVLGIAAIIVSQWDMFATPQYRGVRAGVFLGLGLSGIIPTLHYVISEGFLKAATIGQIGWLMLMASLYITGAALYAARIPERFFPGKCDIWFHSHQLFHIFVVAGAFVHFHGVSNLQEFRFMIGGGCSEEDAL
UniProt O75342: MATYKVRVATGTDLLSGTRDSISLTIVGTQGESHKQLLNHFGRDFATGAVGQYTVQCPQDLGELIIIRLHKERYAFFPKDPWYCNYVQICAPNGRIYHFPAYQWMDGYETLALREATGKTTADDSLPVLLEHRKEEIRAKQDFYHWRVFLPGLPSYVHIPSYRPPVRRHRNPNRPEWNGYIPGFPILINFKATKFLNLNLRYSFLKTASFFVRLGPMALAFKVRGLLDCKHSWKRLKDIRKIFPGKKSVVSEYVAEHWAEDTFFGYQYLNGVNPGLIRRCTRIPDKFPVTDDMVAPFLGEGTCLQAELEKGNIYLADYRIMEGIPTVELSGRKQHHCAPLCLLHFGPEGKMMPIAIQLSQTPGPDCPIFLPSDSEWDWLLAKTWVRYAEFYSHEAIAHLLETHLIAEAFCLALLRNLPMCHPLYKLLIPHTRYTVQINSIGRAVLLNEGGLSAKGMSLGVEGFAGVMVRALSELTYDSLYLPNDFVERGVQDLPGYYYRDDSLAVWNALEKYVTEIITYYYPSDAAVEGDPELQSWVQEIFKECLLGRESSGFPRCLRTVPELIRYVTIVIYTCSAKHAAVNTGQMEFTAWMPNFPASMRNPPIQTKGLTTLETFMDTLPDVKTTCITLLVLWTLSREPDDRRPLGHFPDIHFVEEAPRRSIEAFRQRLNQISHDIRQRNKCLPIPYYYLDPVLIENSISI
UniProt P51828: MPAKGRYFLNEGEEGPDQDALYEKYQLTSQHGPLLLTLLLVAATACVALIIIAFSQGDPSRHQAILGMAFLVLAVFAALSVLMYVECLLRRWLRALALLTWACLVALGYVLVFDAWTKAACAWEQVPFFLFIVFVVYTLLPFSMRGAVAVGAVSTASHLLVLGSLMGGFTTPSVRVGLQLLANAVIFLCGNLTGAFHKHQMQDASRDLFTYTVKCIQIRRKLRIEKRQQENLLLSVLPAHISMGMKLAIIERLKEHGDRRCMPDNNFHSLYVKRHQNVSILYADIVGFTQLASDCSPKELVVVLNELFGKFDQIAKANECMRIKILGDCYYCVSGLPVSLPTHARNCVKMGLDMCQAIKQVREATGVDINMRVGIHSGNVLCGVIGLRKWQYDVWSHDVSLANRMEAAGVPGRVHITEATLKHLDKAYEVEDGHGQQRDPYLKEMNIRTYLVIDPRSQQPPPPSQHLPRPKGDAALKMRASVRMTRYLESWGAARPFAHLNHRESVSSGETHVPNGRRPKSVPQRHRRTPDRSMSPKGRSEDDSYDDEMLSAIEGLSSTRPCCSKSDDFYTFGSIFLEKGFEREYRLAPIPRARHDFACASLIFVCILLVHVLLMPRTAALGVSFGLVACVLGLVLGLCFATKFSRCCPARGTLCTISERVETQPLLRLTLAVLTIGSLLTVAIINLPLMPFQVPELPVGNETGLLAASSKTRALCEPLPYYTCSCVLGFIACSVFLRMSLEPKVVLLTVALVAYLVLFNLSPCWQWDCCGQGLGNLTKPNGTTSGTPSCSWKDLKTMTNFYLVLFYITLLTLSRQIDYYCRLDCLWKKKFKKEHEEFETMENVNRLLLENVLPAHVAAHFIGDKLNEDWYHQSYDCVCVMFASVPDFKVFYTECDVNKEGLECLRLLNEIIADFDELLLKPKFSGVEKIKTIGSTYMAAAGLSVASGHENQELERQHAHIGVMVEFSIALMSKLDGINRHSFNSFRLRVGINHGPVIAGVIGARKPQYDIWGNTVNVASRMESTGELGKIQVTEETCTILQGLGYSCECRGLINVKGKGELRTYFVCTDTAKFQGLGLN
UniProt Q9NP73: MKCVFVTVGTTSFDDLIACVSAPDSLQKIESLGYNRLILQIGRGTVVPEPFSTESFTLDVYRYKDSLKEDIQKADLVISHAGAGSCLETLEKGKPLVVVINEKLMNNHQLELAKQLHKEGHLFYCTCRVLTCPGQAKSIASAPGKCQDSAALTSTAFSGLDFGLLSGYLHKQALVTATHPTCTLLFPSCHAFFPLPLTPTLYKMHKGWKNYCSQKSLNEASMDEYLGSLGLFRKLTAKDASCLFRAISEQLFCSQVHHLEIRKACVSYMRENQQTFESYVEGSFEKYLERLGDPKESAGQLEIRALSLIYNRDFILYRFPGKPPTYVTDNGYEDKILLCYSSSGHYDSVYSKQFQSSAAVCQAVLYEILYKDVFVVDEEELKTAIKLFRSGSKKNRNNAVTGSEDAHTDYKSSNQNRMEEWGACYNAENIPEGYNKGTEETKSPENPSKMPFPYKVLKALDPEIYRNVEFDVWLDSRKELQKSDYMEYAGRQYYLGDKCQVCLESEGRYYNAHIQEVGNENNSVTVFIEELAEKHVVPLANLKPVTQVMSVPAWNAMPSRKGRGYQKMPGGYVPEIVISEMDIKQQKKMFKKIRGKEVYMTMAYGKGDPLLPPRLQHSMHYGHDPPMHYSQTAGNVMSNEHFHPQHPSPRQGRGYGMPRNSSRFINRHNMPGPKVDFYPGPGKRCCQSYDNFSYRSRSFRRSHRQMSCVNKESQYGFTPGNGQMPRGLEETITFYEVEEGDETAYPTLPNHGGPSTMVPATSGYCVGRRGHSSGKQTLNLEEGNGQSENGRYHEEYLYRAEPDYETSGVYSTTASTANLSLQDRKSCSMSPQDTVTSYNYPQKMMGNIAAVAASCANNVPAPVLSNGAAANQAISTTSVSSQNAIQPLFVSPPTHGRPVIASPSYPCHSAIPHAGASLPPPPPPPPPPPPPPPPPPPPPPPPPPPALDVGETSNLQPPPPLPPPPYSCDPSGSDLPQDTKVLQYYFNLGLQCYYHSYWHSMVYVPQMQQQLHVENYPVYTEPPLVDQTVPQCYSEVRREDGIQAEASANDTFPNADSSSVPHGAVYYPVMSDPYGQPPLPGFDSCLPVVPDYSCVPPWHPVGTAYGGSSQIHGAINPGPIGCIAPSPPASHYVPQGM
UniProt P09917: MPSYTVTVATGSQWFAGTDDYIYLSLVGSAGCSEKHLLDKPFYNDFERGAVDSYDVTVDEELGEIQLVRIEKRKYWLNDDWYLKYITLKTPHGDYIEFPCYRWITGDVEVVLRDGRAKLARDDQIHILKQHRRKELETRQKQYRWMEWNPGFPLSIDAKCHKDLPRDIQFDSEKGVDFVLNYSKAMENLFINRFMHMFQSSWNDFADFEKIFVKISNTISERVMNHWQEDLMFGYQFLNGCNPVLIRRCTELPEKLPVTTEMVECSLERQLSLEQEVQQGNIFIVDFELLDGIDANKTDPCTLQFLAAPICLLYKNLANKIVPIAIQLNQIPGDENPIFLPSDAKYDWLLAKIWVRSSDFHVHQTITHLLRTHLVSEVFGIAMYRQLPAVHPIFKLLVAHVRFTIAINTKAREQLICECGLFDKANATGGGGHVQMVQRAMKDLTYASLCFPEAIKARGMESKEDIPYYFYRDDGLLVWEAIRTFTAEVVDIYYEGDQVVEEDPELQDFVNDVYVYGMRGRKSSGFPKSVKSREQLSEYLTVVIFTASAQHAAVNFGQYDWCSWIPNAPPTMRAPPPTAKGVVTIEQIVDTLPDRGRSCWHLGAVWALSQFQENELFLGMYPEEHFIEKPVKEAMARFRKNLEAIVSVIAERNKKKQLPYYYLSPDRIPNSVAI
UniProt P11766: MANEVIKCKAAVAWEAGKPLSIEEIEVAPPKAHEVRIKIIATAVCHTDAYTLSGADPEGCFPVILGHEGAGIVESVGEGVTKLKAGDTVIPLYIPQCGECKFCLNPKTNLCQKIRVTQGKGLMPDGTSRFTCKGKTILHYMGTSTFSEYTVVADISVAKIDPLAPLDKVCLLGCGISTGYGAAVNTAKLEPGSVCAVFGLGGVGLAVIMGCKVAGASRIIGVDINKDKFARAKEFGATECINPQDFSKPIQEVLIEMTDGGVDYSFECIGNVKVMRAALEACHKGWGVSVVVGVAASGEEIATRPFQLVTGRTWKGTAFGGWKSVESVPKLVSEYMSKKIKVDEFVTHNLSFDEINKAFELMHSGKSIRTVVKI
UniProt Q9BQI0: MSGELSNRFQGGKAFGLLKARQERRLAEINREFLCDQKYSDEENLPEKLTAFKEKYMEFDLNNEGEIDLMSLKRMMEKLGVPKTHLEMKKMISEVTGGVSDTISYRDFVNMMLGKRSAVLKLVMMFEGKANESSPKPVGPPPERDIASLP
UniProt Q9NXW9: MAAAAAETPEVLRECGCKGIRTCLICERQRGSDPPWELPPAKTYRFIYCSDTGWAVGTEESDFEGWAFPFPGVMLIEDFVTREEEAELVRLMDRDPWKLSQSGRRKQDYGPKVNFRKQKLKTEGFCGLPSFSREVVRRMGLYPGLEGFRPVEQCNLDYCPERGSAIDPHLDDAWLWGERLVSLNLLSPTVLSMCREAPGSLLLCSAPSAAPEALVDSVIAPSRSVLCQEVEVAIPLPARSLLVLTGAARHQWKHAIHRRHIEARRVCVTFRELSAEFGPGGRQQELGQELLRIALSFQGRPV
UniProt Q96F25: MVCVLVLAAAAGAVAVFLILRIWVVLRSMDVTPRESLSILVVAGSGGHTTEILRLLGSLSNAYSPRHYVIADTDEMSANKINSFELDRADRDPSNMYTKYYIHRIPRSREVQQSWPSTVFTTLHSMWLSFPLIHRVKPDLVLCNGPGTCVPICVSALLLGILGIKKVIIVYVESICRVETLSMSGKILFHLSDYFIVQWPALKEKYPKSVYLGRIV
UniProt Q9Y4X0: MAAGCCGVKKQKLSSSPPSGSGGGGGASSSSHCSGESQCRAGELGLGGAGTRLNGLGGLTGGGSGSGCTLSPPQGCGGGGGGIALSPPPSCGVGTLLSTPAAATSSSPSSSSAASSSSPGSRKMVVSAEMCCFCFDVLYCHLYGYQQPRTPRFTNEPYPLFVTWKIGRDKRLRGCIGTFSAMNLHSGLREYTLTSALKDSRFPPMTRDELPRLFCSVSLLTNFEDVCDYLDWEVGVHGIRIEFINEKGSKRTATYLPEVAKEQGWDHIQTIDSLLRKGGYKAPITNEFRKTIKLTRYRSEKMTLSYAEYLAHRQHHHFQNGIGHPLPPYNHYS
UniProt P51825: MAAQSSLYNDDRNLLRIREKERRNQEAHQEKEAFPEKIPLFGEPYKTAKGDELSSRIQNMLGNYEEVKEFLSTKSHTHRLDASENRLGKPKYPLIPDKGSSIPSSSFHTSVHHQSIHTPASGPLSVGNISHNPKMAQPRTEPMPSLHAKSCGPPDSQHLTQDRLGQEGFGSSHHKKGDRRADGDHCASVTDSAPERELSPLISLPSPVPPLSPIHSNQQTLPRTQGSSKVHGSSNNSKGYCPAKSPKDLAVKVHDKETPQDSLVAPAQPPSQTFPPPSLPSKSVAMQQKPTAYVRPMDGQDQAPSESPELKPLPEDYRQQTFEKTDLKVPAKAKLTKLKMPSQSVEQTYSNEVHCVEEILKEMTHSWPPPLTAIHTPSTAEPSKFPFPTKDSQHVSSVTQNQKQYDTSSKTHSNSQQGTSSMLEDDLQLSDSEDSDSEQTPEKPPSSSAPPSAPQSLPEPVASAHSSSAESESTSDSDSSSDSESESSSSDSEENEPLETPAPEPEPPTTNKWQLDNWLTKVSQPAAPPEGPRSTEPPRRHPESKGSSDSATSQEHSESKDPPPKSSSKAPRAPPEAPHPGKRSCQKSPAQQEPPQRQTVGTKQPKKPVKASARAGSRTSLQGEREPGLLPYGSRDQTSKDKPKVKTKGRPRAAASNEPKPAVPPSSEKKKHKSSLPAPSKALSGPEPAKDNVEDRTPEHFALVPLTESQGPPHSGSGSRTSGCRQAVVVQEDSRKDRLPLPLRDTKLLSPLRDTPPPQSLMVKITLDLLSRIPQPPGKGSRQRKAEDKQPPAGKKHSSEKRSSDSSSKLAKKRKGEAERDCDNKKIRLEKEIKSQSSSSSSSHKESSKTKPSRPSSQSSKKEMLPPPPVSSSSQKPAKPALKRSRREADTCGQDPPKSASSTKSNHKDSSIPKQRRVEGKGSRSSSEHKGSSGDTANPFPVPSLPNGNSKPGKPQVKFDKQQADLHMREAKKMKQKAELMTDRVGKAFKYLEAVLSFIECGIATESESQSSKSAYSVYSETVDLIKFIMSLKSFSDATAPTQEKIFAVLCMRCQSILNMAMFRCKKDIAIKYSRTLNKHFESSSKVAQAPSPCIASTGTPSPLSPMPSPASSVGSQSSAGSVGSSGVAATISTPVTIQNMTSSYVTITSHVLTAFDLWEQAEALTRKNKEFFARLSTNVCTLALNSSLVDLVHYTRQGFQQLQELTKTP

Key:
Assay in all cases: log2 fold change, soluble protein after heating vs DMSO (PISA); higher = thermal stabilisation; K562 cells, 10 uM, 30 min; active = over 0.2 and 3.5 SD of the protein, either way, in both replicates (recomputed)
saracatinib = compound: CN1CCN(CCOc2cc(OC3CCOCC3)c3c(Nc4c(Cl)ccc5c4OCO5)ncnc3c2)CC1 [saracatinib]
In short: (§1)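 K562 cells at 2×10^6 cells/mL were treated for 30 min with 10 μM compound, and aliquots were heated for 3 min over 48°C-58°C before pooling. Extraction used PBS with 0.5% NP-40 at 4°C, and soluble protein was the supernatant after 21,000xg for 90 min, measured by TMTpro 16plex LC-MS/MS with channel sums equalised. Thermal stability values, relative to control samples and from duplicates, are log2 fold changes.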

alvocidib = compound: CN1CC[C@H](c2c(O)cc(O)c3c(=O)cc(-c4ccccc4Cl)oc23)[C@H](O)C1 [alvocidib]
In short: as §1

Tubastatin A = compound: CN1CCc2c(c3ccccc3n2Cc2ccc(C(=O)NO)cc2)C1 [Tubastatin A]
In short: as §1

[1] = compound: CNC(=O)C1=CC=CC=C1NC2=NC(=NC=C2Cl)NC3=C(C=C(C=C3)N4CCOCC4)OC
In short: as §1

defactinib = compound: CNC(=O)c1ccc(Nc2ncc(C(F)(F)F)c(NCc3nccnc3N(C)S(C)(=O)=O)n2)cc1 [defactinib]
In short: as §1

[2] = compound: CNc1nc(-c2ccc3c(N)n[nH]c3c2)cc(N2C[C@@H](C(=O)NC3CCCCC3)CC[C@H]2C)n1
In short: as §1

[3] = compound: COC(=O)[C@H](CCSC)NC(=O)C1=C(C=C(C=C1)NC[C@H](CS)N)C2=CC=CC=C2
In short: as §1

zotarolimus = compound: CO[C@H]1C[C@@H]2CC[C@@H](C)[C@@](O)(O2)C(=O)C(=O)N2CCCC[C@H]2C(=O)O[C@H]([C@H](C)C[C@@H]2CC[C@H](n3cnnn3)[C@H](OC)C2)CC(=O)[C@H](C)/C=C(\C)[C@@H](O)[C@@H](OC)C(=O)[C@H](C)C[C@H](C)/C=C/C=C/C=C/1C [zotarolimus]
In short: as §1

idasanutlin = compound: COc1cc(C(=O)O)ccc1NC(=O)[C@@H]1N[C@@H](CC(C)(C)C)[C@](C#N)(c2ccc(Cl)cc2F)[C@H]1c1cccc(Cl)c1F [idasanutlin]
In short: as §1

[4] = compound: COc1cc2nc(-c3cc(F)ccc3O)nc(N[C@@H]3CNC[C@H]3C(C)(C)O)c2cc1OC
In short: as §1

lapatinib = compound: CS(=O)(=O)CCNCc1ccc(-c2ccc3ncnc(Nc4ccc(OCc5cccc(F)c5)c(Cl)c4)c3c2)o1 [lapatinib]
In short: as §1

pictilisib = compound: CS(=O)(=O)N1CCN(Cc2cc3nc(-c4cccc5[nH]ncc45)nc(N4CCOCC4)c3s2)CC1 [pictilisib]
In short: as §1

[5] = compound: COC1=CC=C(C=C1)CN2C=CC3=C2C=C(C=C3)C(=O)NO
In short: as §1

alisertib = compound: COc1cc(Nc2ncc3c(n2)-c2ccc(Cl)cc2C(c2c(F)cccc2OC)=NC3)ccc1C(=O)O [alisertib]
In short: as §1

[6] = compound: COc1cccc2cc(-c3nc([C@H]4CC[C@H](C(=O)O)CC4)n4ncnc(N)c34)[nH]c12
In short: as §1

rucaparib = compound: CNCc1ccc(-c2[nH]c3cc(F)cc4c3c2CCNC4=O)cc1 [rucaparib]
In short: as §1

encorafenib = compound: COC(=O)N[C@@H](C)CNc1nccc(-c2cn(C(C)C)nc2-c2cc(Cl)cc(NS(C)(=O)=O)c2F)n1 [encorafenib]
In short: as §1

sotrastaurin = compound: CN1CCN(c2nc(C3=C(c4c[nH]c5ccccc45)C(=O)NC3=O)c3ccccc3n2)CC1 [sotrastaurin]
In short: as §1

filanesib = compound: CON(C)C(=O)N1N=C(c2cc(F)ccc2F)S[C@@]1(CCCN)c1ccccc1 [filanesib]
In short: as §1

gefitinib = compound: COc1cc2ncnc(Nc3ccc(F)c(Cl)c3)c2cc1OCCCN1CCOCC1 [gefitinib]
In short: as §1

Measured: log2 fold change

ADIPOR2 (UniProt Q86V24)
inactive: saracatinib 0.115 | alvocidib -0.109 | Tubastatin A -0.062 | [1] 0.044 | defactinib 0.104 | [2] -0.108 | [3] -0.035 | zotarolimus -0.07 | idasanutlin 0.003 | [4] -0.012 | lapatinib 0.023 | pictilisib 0.076

AGTPBP1 isoform 3 (UniProt Q9UPW5)
inactive: saracatinib 0.123 | defactinib -0.109 | [2] -0.095 | [3] -0.024 | [5] 0.01 | alisertib -0.024 | [6] 0.132

AMBP (UniProt P02760)
inactive: saracatinib 0.463 | alvocidib 0.097 | [1] 0.262 | defactinib -0.15 | rucaparib -0.205 | [2] 0.186 | encorafenib -0.036 | [3] 0.212 | [5] -0.015 | zotarolimus -0.204 | alisertib 0.101 | [4] 0.063 | [6] 0.31 | lapatinib -0.263 | pictilisib -0.07

ALOX12B (UniProt O75342)
inactive: saracatinib -0.333 | sotrastaurin -0.046 | Tubastatin A 0.238 | defactinib 0.206 | rucaparib 0.056 | [2] 0.294 | encorafenib -0.137 | [3] 0.013 | filanesib 0.059 | idasanutlin 0.254 | alisertib 1.21 | [4] 0.309 | [6] 0.145 | lapatinib -0.137

ALDH3A2 isoform 2 (UniProt P51648)
inactive: saracatinib 0.122 | [1] 0.004 | defactinib -0.116 | [2] -0.051 | [3] 0.074 | [5] -0.208

ADCY7 (UniProt P51828)
inactive: saracatinib 0.008 | alvocidib -0.036 | [2] -0.04 | zotarolimus -0.034 | idasanutlin -0.348 | gefitinib 0.14 | pictilisib 0.081

ALG13 isoform 2 (UniProt Q9NP73)
inactive: saracatinib 0.022 | defactinib 0.071 | [2] -0.032 | [3] -0.027 | idasanutlin 0.029 | alisertib 0.016 | [4] -0.063 | gefitinib -0.005 | [6] 0.029 | lapatinib -0.017 | pictilisib -0.069

ALOX5 (UniProt P09917)
inactive: saracatinib 0.083 | Tubastatin A 0.08 | [2] -0.029

ADH5 (UniProt P11766)
inactive: saracatinib 0.04 | sotrastaurin 0.03 | Tubastatin A -0.025 | [1] -0.025 | defactinib -0.014 | rucaparib -0.066 | [2] -0.025 | encorafenib -0.006 | [3] 0.002 | [5] -0.002 | filanesib -0.053 | zotarolimus 0.008 | idasanutlin -0.037 | alisertib -0.039 | [4] 0.011 | gefitinib -0.007 | [6] 0.058 | lapatinib -0.03 | pictilisib 0

AIF1L isoform 2 (UniProt Q9BQI0)
inactive: saracatinib 0.122 | alvocidib 0 | [1] -0.133 | defactinib -0.176 | rucaparib -0.069 | [2] -0.063 | encorafenib 0.182 | [3] 0.024 | zotarolimus -0.361 | idasanutlin 0.038 | alisertib -0.038 | [4] 0.038 | gefitinib 0.178 | [6] -0.12 | lapatinib 0.079 | pictilisib 0.105

ALKBH4 (UniProt Q9NXW9)
inactive: saracatinib -0.072 | sotrastaurin -0.106 | Tubastatin A 0.086 | [1] 0.198 | defactinib -0.056 | rucaparib 0.07 | [2] 0.03 | encorafenib 0.074 | [3] 0.071 | [5] -0.203 | filanesib -0.036 | zotarolimus 0.06 | idasanutlin -0.036 | alisertib 0.086 | [4] -0.058 | [6] 0.014 | lapatinib -0.023 | pictilisib 0.106

ALG14 (UniProt Q96F25)
inactive: saracatinib 0.049 | Tubastatin A -0.027 | [1] -0.001 | defactinib 0.091 | rucaparib -0.173 | [2] -0.022 | encorafenib 0.028 | [3] -0.002 | [5] -0.2 | zotarolimus -0.109 | idasanutlin -0.091 | alisertib 0.112 | [4] -0.19 | gefitinib 0.074 | [6] 0.077 | lapatinib 0.168 | pictilisib -0.467

Copied from the entries so far (four entries):
ALOX5 (UniProt P09917)
inactive: saracatinib 0.083 | Tubastatin A 0.08 | [2] -0.029

ADH5 (UniProt P11766)
inactive: saracatinib 0.04 | sotrastaurin 0.03 | Tubastatin A -0.025 | [1] -0.025 | defactinib -0.014 | rucaparib -0.066 | [2] -0.025 | encorafenib -0.006 | [3] 0.002 | [5] -0.002 | filanesib -0.053 | zotarolimus 0.008 | idasanutlin -0.037 | alisertib -0.039 | [4] 0.011 | gefitinib -0.007 | [6] 0.058 | lapatinib -0.03 | pictilisib 0

AIF1L isoform 2 (UniProt Q9BQI0)
inactive: saracatinib 0.122 | alvocidib 0 | [1] -0.133 | defactinib -0.176 | rucaparib -0.069 | [2] -0.063 | encorafenib 0.182 | [3] 0.024 | zotarolimus -0.361 | idasanutlin 0.038 | alisertib -0.038 | [4] 0.038 | gefitinib 0.178 | [6] -0.12 | lapatinib 0.079 | pictilisib 0.105

ALKBH4 (UniProt Q9NXW9)
inactive: saracatinib -0.072 | sotrastaurin -0.106 | Tubastatin A 0.086 | [1] 0.198 | defactinib -0.056 | rucaparib 0.07 | [2] 0.03 | encorafenib 0.074 | [3] 0.071 | [5] -0.203 | filanesib -0.036 | zotarolimus 0.06 | idasanutlin -0.036 | alisertib 0.086 | [4] -0.058 | [6] 0.014 | lapatinib -0.023 | pictilisib 0.106

Further results

AMBRA1 isoform 5 (UniProt Q9C0C7)
inactive: saracatinib 0.073 | alvocidib -0.109 | Tubastatin A -0.179 | defactinib -0.077 | [2] -0.01 | [3] -0.079 | zotarolimus -0.008 | idasanutlin -0.111 | alisertib 0.036 | [6] -0.27

AFDN isoform 1 (UniProt P55196)
inactive: saracatinib -0.192 | sotrastaurin -0.047 | [1] -0.025 | defactinib 0.021 | rucaparib 0.009 | [2] -0.175 | encorafenib 0.018 | [3] -0.302 | [5] -0.151 | filanesib 0.024 | zotarolimus -0.01 | idasanutlin 0.019 | alisertib 0.127 | [6] 0.074 | pictilisib -0.144

ADGRD1 isoform 4 (UniProt Q6QNK2)
inactive: saracatinib -0.12 | alvocidib 0.048 | Tubastatin A 0.031 | defactinib -0.05 | rucaparib -0.224 | [2] -0.214 | encorafenib 0.203 | [3] 0.053 | [5] -0.052 | zotarolimus 0.017 | idasanutlin -0.287 | alisertib -0.044 | [6] 0.138

ALKBH1 (UniProt Q13686)
inactive: saracatinib 0.111 | alvocidib 0.039 | Tubastatin A -0.25 | defactinib 0.029 | [2] -0.072 | [3] 0.096 | [5] -0.058 | zotarolimus -0.005 | idasanutlin -0.226 | [4] -0.043 | gefitinib -0.096 | lapatinib -0.014 | pictilisib 0.074

AMMECR1 (UniProt Q9Y4X0)
inactive: saracatinib -0.09 | alvocidib -0.172 | [1] 0.159 | defactinib -0.047 | [2] 0.078 | [3] -0.048 | zotarolimus 0.066 | idasanutlin 0.058

ALKBH5 (UniProt Q6P6C2)
inactive: saracatinib -0.006 | sotrastaurin -0.044 | Tubastatin A 0.118 | [1] -0.185 | defactinib 0.021 | rucaparib 0.11 | [2] 0.035 | encorafenib -0.048 | [3] 0.003 | [5] 0.124 | filanesib 0.001 | zotarolimus -0.067 | idasanutlin 0.016 | alisertib -0.12 | [4] 0.044 | gefitinib 0.023 | [6] -0.138 | lapatinib -0.008 | pictilisib 0.094

AFF1 isoform 2 (UniProt P51825)
inactive: saracatinib -0.112 | [1] 0.025 | defactinib 0.061 | rucaparib -0.123 | [2] 0.055 | encorafenib 0.23 | [3] -0.211 | [5] 0 | idasanutlin -0.425 | alisertib 0.004 | [4] 0.163 | gefitinib -0.1 | [6] 0.088 | lapatinib 0.056 | pictilisib -0.128

ALDH9A1 (UniProt P49189)
inactive: saracatinib 0.005 | sotrastaurin 0.032 | Tubastatin A -0.019 | [1] 0.016 | defactinib -0.008 | rucaparib -0.014 | [2] -0.041 | encorafenib 0.023 | [3] -0.058 | filanesib -0.149 | zotarolimus -0.164 | idasanutlin -0.073 | alisertib -0.091 | [4] 0.038 | gefitinib 0.039 | [6] 0.081 | lapatinib -0.037 | pictilisib -0.124

AKR1D1 (UniProt P51857)
inactive: saracatinib -0.178 | alvocidib 0.061 | Tubastatin A -0.074 | defactinib 0.124 | [2] 0.074 | [3] -0.14 | zotarolimus 0.146 | idasanutlin -0.248 | [4] 0.009 | lapatinib 0.069 | pictilisib 0.162
